For orientation: AC50 means the concentration giving half of the maximal activity seen.

Molecules are shown by their SMILES. Some of the results follow. Further columns of the screen follow, without active or inactive calls. The list favours compounds with an active or inconclusive main result. Potencies come from curve fits of mixed quality, noted in brackets.

A short description of the experiment: qHTS Assay to Find Inhibitors of Chronic Active B-Cell Receptor Signaling. The following applies: ABC-DLBCL IkBa-CBG/CBR reporter, luminescence ratio (green luciferase fused to IkBa over red control in TMD8 lymphoma cells), 4 h. In a few lines:
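TMD8 human ABC-DLBCL cells with doxycycline-inducible IκBα–green luciferase fusion and unfused red luciferase, in 0.5% FBS medium; compounds up to 46 uM, 4 h at 37C. Green/red luminescence ratio, filter-overlap corrected, fitted to concentration-response curves.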
A general note: Quantitative high-throughput screening tests each substance at several concentrations.

The mark [1] stands for this setting: measured here: CBR red luminescence, cell number.
Setting [2] is: measured here: IkBa-CBG green luminescence.

`CC(NC(=O)COC(=O)C12CC3CC(CC(Br)(C3)C1)C2)c1ccccc1` (stereo unspecified): the AC50 under setting [1] was 23.1 µM [rising, partial curve, poor fit].
As to `COc1ccc(CCn2c(N3CCN(Cc4ccccc4)CC3)nc3c2c(=O)[nH]c(=O)n3C)cc1`, under setting [1], the AC50 was 20 µM [rising, partial curve, poor fit].
On the same count and under the same terms, in the case of `C/C(=N\NC(=O)c1ccn(C)n1)c1cccc(NC(=O)c2ccncc2)c1` it was 29.1 µM [falling, single point]; in that of `Cc1ccc(-c2nc(NC(=O)c3nn(C)cc3[N+](=O)[O-])sc2C)cc1C`, 3.26 µM [falling, full curve]; in that of `Cc1ccccc1/C=C1\SC(=S)N(/N=C/c2cc([N+](=O)[O-])ccc2O)C1=O`, 10 µM [falling, single point].
Turning to `Cn1cc([N+](=O)[O-])c(C(=O)N(Cc2ccccc2)Cc2ccccc2)n1`, under setting [1], the half-maximal activity concentration (AC50) was 6.51 µM [rising, partial curve, poor fit].
The same measure, in the same setting: in the case of `NS(=O)(=O)c1cccc(NC(=O)CCCC2CCCCC2)c1` it was 0.708 µM [falling, full curve]; in that of `Nc1ccc(-c2cnc(-c3ccc(N)cc3)nc2)cc1`, 12.6 µM [falling, partial curve, poor fit]; in that of `CCCCc1nnc(NC(=O)c2ccccc2OCc2c(C)noc2C)s1`, 14.6 µM [falling, single point].
Consider `O=C(N/N=C/c1ccncc1)c1ccccc1OCc1ccc(Br)cc1`, for which, under setting [1], the AC50 is 9.2 µM [falling, partial curve].
On the same count and under the same terms, in the case of `Cc1cc(Cn2nc(C(=O)NCc3cccc(Br)c3)cc2-c2ccccc2)on1` it was 29.1 µM [falling, single point]; in that of `O=c1[nH]c(=S)c2ncn(-c3ccccc3)c2[nH]1`, 25.1 µM [falling, single point].
For the compound `CCSc1ncnc2sc3c(c12)CCC3`, the AC50 under setting [1] was 29.1 µM [rising, single point].
On the same count and under the same terms, under `N#Cc1ccsc1NC(=O)CN1CCN(S(=O)(=O)c2ccccc2C(F)(F)F)CC1` stands 8.2 µM [rising, partial curve, poor fit].
Still for that read-out and setting: in the case of `CCOC(=O)c1nnn(-c2ccc([N+](=O)[O-])cc2[N+](=O)[O-])c1C` it was 12.6 µM [falling, partial curve, poor fit]; in that of `CC1Cc2ccccc2N1c1ncnc2nc[nH]c12` (stereo unspecified), 0.259 µM [falling, full curve, poor fit].
Same read-out and setting: in the case of `Cc1ccc(-c2csc(NC(=O)c3ccccc3F)c2C(=O)O)cc1` it was 11.2 µM [falling, partial curve]; in that of `CCCNC(=O)CSc1nnc(C)s1`, 6.51 µM [rising, single point].
As for `O=C(O)CNS(=O)(=O)Cc1ccccc1`, under setting [1], the concentration at half-maximal activity (AC50) is 31.6 µM [falling, single point].
On the same count and under the same terms, under `O=C(O)CCN(CCC(=O)O)c1ccccc1` stands 23.1 µM [rising, partial curve, poor fit].
Regarding `CC(C)N1C(=O)/C(=C\c2nc3ccccc3c(=O)[nH]2)c2ccccc21`, the half-maximal activity concentration (AC50) is, setting by setting: under setting [1], 29.1 µM [falling, single point]; under setting [2], 25.9 µM [falling, partial curve, poor fit].
As to `COC(=O)c1sc(NC(=O)c2c(C)noc2C)nc1C`, under setting [1], the concentration at half-maximal activity (AC50) is 35.5 µM [falling, single point].
With `Cc1ccc(Nc2c(-c3ccc(N4CCOCC4)cc3)nc3ncccn23)cc1`, the half-maximal activity concentration (AC50) reads like this: under setting [1], 6.51 µM [rising, partial curve]; under setting [2], 0.461 µM [falling, partial curve, poor fit].
On to `O=C(CNc1n[nH]c(=O)[nH]c1=O)N/N=C/C1CC=CCC1` (stereo unspecified), for which, under setting [1], the AC50 was 7.08 µM [rising, partial curve, poor fit].
On the same count and under the same terms, in the case of `Cc1ccc2c(CC(=O)NCc3ccc4c(c3)OCO4)coc2c1` it was 7.31 µM [falling, partial curve, poor fit]; in that of `O=C(CSc1ccccn1)Nc1ccc(Cl)cn1`, 14.1 µM [falling, single point]; in that of `O=C(OCc1csc(-c2ccccc2)n1)C1=NN(c2ccccc2)C(=O)CC1`, 6.51 µM [rising, partial curve, poor fit].
Still for that read-out and setting: under `COc1ccc(/C=C/C(=O)O/N=C(\N)c2ccccc2)cc1OC` stands 29.1 µM [falling, single point].
As for `CCN1C(=O)c2cccc3c(S(=O)(=O)Nc4nc(C)cs4)ccc1c23`, the AC50 under setting [1] was 11.2 µM [rising, partial curve] and the concentration at half-maximal activity (AC50) under setting [2] is 5.62 µM [falling, partial curve].
With `CCCCNC(=S)NNC(=O)c1ccc(Br)o1`, the AC50 under setting [2] is 18.4 µM [falling, partial curve, poor fit].
On to `Cc1nn(CC(=O)O)c(C)c1Cl`, for which the AC50 under setting [1] is 7.31 µM [rising, partial curve, poor fit].
Still for that read-out and setting: under `CCCn1c(=O)c(C(=O)NNC(=O)c2cccc([N+](=O)[O-])c2)c(O)c2ccccc21` stands 10 µM [falling, partial curve, poor fit]; under `O=C(C1=C[C@@H](c2coc3ccccc3c2=O)C[C@@H](OCc2ccc(CO)cc2)O1)N1CCN(Cc2ccc3c(c2)OCO3)CC1`, 0.501 µM [rising, partial curve, poor fit]; under `Cc1ccc2nc3n(c(=O)c2c1)-c1ccccc1C(=O)NC3Cc1ccc(O)cc1` (stereo unspecified), 0.103 µM [rising, full curve, poor fit].
The same measure, in the same setting: under `COc1ccc(-c2nn(-c3ccccc3)cc2CO)cc1` stands 3.66 µM [rising, partial curve, poor fit]; under `CC(=O)Nc1ccc(Sc2ncnc3scc(-c4ccccc4)c23)cc1`, 29.1 µM [falling, single point].
On to `O=C(O)c1cc(-c2c[nH]c3ccccc23)nc2ccc3ccccc3c12`, for which the AC50 under setting [1] is 4.47 µM [falling, single point].
The same measure, in the same setting: in the case of `CCCCc1nnc(NC(=O)c2nc3nccc(C)n3n2)s1` it was 25.1 µM [falling, single point]; in that of `CCc1cccc(NC(=S)N(CCOC)C2CCN(C(C)=O)CC2)c1`, 22.4 µM [rising, single point]; in that of `C#CCOCCOCCOCCNc1nc(N2CCN(C(=O)CCCCCCCCCCNC(=O)[C@@H](CCSC)n3cc(CCO)nn3)CC2)nc(N2CCN(C(=O)CCCCCCCCCCNC(=O)[C@H]([C@@H](C)CC)n3cc(CCCCCN)nn3)CC2)n1`, 14.6 µM [rising, partial curve].
Still for that read-out and setting: in the case of `Cc1cc(SCC(=O)N2CCCC2=O)nc2c(C)cccc12` it was 7.31 µM [rising, partial curve, poor fit]; in that of `O=S(=O)(N1CCOCC1)n1nnc2ccccc21`, 23.1 µM [rising, single point].
Still for that read-out and setting: under `COc1ccc2nc(SCC(=O)Nc3nccs3)[nH]c2c1` stands 15.8 µM [falling, partial curve, poor fit]; under `CC(=O)c1c(C)[nH]c(C(=O)OCC(=O)NCCC(C)C)c1C`, 22.4 µM [falling, partial curve, poor fit].
As to `CC(=O)Nc1cccc(C(=O)/C=C/c2ccc(/C=C/C(=O)c3cccc(NC(C)=O)c3)cc2)c1`, the AC50 is, setting by setting: under setting [1], 8.2 µM [falling, partial curve]; under setting [2], 23.1 µM [rising, partial curve, poor fit].
Take `CCNc1ccc(C(=O)NN=C2CCCC2)cc1[N+](=O)[O-]`: the AC50 under setting [1] was 2.82 µM [falling, partial curve, poor fit].
In the case of `COc1ccccc1/C=C/C(=O)OCC(=O)NC1CC1`, under setting [1], the AC50 is 29.1 µM [falling, single point].
On the same count and under the same terms, under `CCc1ccc(CN2C(=O)c3ccccc3C2C(=O)NCCc2ccc(OC)c(OC)c2)cc1` (stereo unspecified) stands 5.62 µM [rising, partial curve, poor fit].
On to `CCc1cc(C(=O)N2CCCC(Nc3ccc(F)c(F)c3)C2)n(C)n1` (stereo unspecified), for which the AC50 under setting [1] was 6.31 µM [rising, single point].
For the compound `COc1cccc(NC(=O)CSc2nc3ccccc3nc2N2CCOCC2)c1`, the AC50 under setting [1] is 14.1 µM [falling, single point].
`O=C(CSc1nc2ccccc2c(=O)n1Cc1ccccc1)Nc1ccc(Br)cc1C(=O)O`: the half-maximal activity concentration (AC50) under setting [1] was 7.94 µM [falling, partial curve, poor fit].
Same read-out and setting: under `Cc1ccc(NC(NC(=O)c2ccccn2)C(Cl)(Cl)Cl)cc1` (stereo unspecified) stands 17.8 µM [falling, single point]; under `CCc1nnc(NS(=O)(=O)c2ccc(N/C=C\C(=O)c3cccc4ccccc34)cc2)s1`, 25.9 µM [rising, single point]; under `Cc1ccccc1NC1=NCC(c2ccc([N+](=O)[O-])cc2)S1` (stereo unspecified), 1 µM [falling, full curve].
The same measure, in the same setting: under `CCN(CC)S(=O)(=O)c1ccc(Cl)c(C(=O)OC)c1` stands 13 µM [rising, partial curve, poor fit]; under `Cc1cc(C)n(C(N)=NC(=O)c2ccc([N+](=O)[O-])cc2)n1`, 0.316 µM [rising, full curve, poor fit]; under `CCOC(=O)c1sc(NC(=O)c2sccc2C)cc1C`, 8.2 µM [falling, partial curve].
Turning to `CCOC(=O)CSC1=C(C#N)C(c2ccccc2OCC)C(C#N)C(=O)N1` (stereo unspecified), the half-maximal activity concentration (AC50) by setting is: under setting [1], 35.5 µM [rising, single point]; under setting [2], 35.5 µM [falling, partial curve, poor fit].
Take `CC(=O)Nc1ccc(S(=O)(=O)N2CCCC2C(=O)Nc2ccc3c(c2)OCCO3)cc1` (stereo unspecified): the AC50 under setting [1] was 3.98 µM [rising, single point].
Regarding `N#CC(C#N)=C1C=CC=CN1/C(=C\c1ccco1)C(=O)c1ccc(-c2ccccc2)cc1`, the AC50 runs as follows: under setting [1], 25.9 µM [falling, single point]; under setting [2], 23.1 µM [rising, partial curve, poor fit].

Values taken from PubChem BioAssay AID493014 (National Center for Advancing Translational Sciences (NCATS), 2011).
